{"source": "PubChem BioAssay AID1259308 (NCATS, 2017)", "aim": "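Genes whose loss raises luciferase production in HEK293 cells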 (primary screen)", "system": "human HEK293 embryonic kidney cells stably expressing firefly luciferase (HEK-CMV-Luc2-Hygro)", "reagent": "single siRNA against human genes, 0.8 pmol siRNA per well", "duration": "72 h", "read-out": "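Luciferase light (ONE-Glo) measured on one replicate plate set and viability (CellTiter-Glo) on the other, scaled to a negative control siRNA, with robust z-scores and luciferase per cell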", "reading the numbers": "total luciferase, z-score and total luciferase, % of control: higher = more reporter protein produced", "hit rule": "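Active when the median/MAD z-score for overall luciferase is greater than 3; a gene was taken forward for validation with new siRNAs if at least two of its three siRNAs passed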", "meaning of the calls": "active = raised luciferase; inactive = no rise", "note": "The deposit covers about 59,000 reagents; this is an unselected part. About 1,510 of all reagents (2.6%) were called active. 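Calls use total luciferase alone and ignore viability, so some active siRNAs may act by altering cell number.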 Reagents against one gene are numbered here. Not all columns of the deposit are shown."}
{"gene":"SARS2","reagent":1,"total luciferase, z-score":-0.962,"total luciferase, % of control":62.8,"call":"inactive"}
{"gene":"SARS2","reagent":2,"total luciferase, z-score":0.805,"total luciferase, % of control":97.9,"call":"inactive"}
{"gene":"SARS2","reagent":3,"total luciferase, z-score":-0.634,"total luciferase, % of control":69.3,"call":"inactive"}
{"gene":"SDAD1","reagent":1,"total luciferase, z-score":-1.73,"total luciferase, % of control":47.5,"call":"inactive"}
{"gene":"SDAD1","reagent":2,"total luciferase, z-score":-0.903,"total luciferase, % of control":63.9,"call":"inactive"}
{"gene":"SDAD1","reagent":3,"total luciferase, z-score":-0.86,"total luciferase, % of control":64.8,"call":"inactive"}
{"gene":"FAM153CP","reagent":1,"total luciferase, z-score":-0.399,"total luciferase, % of control":74,"call":"inactive"}
{"gene":"FAM153CP","reagent":2,"total luciferase, z-score":-0.9,"total luciferase, % of control":64,"call":"inactive"}
{"gene":"FAM153CP","reagent":3,"total luciferase, z-score":1.2,"total luciferase, % of control":106,"call":"inactive"}
{"gene":"SDHA","reagent":1,"total luciferase, z-score":-0.534,"total luciferase, % of control":71.3,"call":"inactive"}
{"gene":"SDHA","reagent":2,"total luciferase, z-score":-0.288,"total luciferase, % of control":76.2,"call":"inactive"}
{"gene":"SDHA","reagent":3,"total luciferase, z-score":0.0424,"total luciferase, % of control":82.7,"call":"inactive"}

A few values from above:
For “total luciferase, % of control”, SDHA #2 has 76.2
Result for FAM153CP #3 under “total luciferase, z-score”: 1.2
Entry for SARS2 #1 under “call”: inactive

Continued.
{"gene":"EPHB3","reagent":1,"total luciferase, z-score":0.894,"total luciferase, % of control":99.7,"call":"inactive"}
{"gene":"EPHB3","reagent":2,"total luciferase, z-score":0.287,"total luciferase, % of control":87.6,"call":"inactive"}
{"gene":"EPHB3","reagent":3,"total luciferase, z-score":0.795,"total luciferase, % of control":97.7,"call":"inactive"}
{"gene":"TP53TG3","reagent":1,"total luciferase, z-score":-0.256,"total luciferase, % of control":76.8,"call":"inactive"}
{"gene":"TP53TG3","reagent":2,"total luciferase, z-score":1.38,"total luciferase, % of control":109,"call":"inactive"}
{"gene":"TP53TG3","reagent":3,"total luciferase, z-score":0.857,"total luciferase, % of control":98.9,"call":"inactive"}
{"gene":"HTR3C","reagent":1,"total luciferase, z-score":0.41,"total luciferase, % of control":90,"call":"inactive"}
{"gene":"HTR3C","reagent":2,"total luciferase, z-score":-0.845,"total luciferase, % of control":65.1,"call":"inactive"}
{"gene":"HTR3C","reagent":3,"total luciferase, z-score":-0.707,"total luciferase, % of control":67.8,"call":"inactive"}
